# Data from PubChem BioAssay AID540303 (National Center for Advancing Translational Sciences (NCATS), 2011).
# Hit rate of the full screen: of about 330,000 compounds, about 1,000 (0.3%) were called active. This list was built around the results that the source calls inconclusive (neither active nor inactive); the mix of calls is not that of the screen. Calls follow the shape of the dose curve; as a rule, active = well fitted inhibition curve with a large enough effect; inconclusive = small, poorly fitted or top-dose-only effect; inactive = no such curve, though single readings can be large or run the other way; tested in mouse RAW 264.7 cells. Where the call is inconclusive, the potency comes from a doubtful curve fit.
# Assay: qHTS for Inhibitors of Cell Surface uPA Generation; also: nearly all actives have a fitted effect of over 55% in size
# Conditions: cell surface uPA generation assay; series mostly up to 38.3 µM; activity change, negative = inhibition: at the top concentration
# Method in brief: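 Using RAW 264.7 macrophages, the screen measures whether compounds keep cellular ATP up by preventing uPA-driven LF translocation. Treatment lasted 24 h at 37 C, with a final top concentration of 38.3 uM, and luminescence was the readout.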
# % is scaled to controls: 0 for no effect and ±100 for the full control effect; potency is read from the fitted curve at half-maximal effect.
SMILES,Potency,"activity change, negative = inhibition"
Cc1cccc(C2CC(c3ccccc3)Nc3ncnn32)c1 (centres undefined),"inconclusive: 31.6 µM [inhibitor, single point]",–
CCC1CCCCN1S(=O)(=O)c1ccc(NC(=O)c2snnc2C)cc1 (centres undefined),–,inactive: -0.213%
COc1ccccc1NC(=O)N1CCC(c2nc3ccccc3o2)CC1,–,inactive: 12%
CCOC(=O)C1(CCOc2ccccc2)CCN(Cc2ccc(O)c(OCC)c2)CC1,–,inactive: -9.44%
COc1ccc(C2(C)NC(=O)N(CC(=O)c3cc(C)n(C4CC4)c3C)C2=O)cc1 (centres undefined),"inconclusive: 5.01 µM [inhibitor, partial curve, poor fit]",–
Cc1ccc(-n2ncc3c(N4CCC5(CC4)OCCO5)ncnc32)c(C)c1,–,inactive: 6.11%
CC1=NC(=O)C(N=Nc2ccccc2)N1c1ccccc1 (centres undefined),–,inactive: 6%
COc1ccc(C(=O)Nc2nnc(SCC(=O)NCc3ccco3)s2)c(OC)c1,"inconclusive: 5.01 µM [inhibitor, partial curve, poor fit]",–
COc1cc2ncc(S(=O)(=O)c3ccccc3)c(N3CCCC(C)C3)c2cc1OC (centres undefined),"inconclusive: 11.2 µM [inhibitor, partial curve, poor fit]",–
Oc1ccc(/C=N/Nc2ccnc3cc(Cl)ccc23)c(O)c1,"inconclusive: 2.24 µM [inhibitor, full curve, poor fit]",–
O=C(CCS(=O)(=O)c1ccccc1)Nc1nc(-c2ccccn2)cs1,"inconclusive: 5.62 µM [inhibitor, partial curve]",–
Cc1[nH]n(-c2ccccc2)c(=O)c1C(C[N+](=O)[O-])c1ccc(Br)cc1 (centres undefined),–,inactive: -9.7%
C/C=C/c1ccc(OCCNCc2ccccc2)c(OC)c1,–,inactive: -11.3%
COc1cc(/C=N/O)ccc1OCc1ccccc1Cl,–,inactive: -9.25%
COc1ccccc1NC(=O)c1sc(Cl)nc1C,"inconclusive: 11.2 µM [inhibitor, partial curve, poor fit]",–
COc1ccc(NC(=O)CN(C)C(=O)CCNC(=O)c2ccccc2OC)cc1,–,inactive: 2.59%
CCN(CC)c1nc(N)c([N+](=O)[O-])c(NCCO)n1,"inconclusive: 35.5 µM [inhibitor, partial curve, poor fit]",–
Cc1cc(C)cc(NS(=O)(=O)c2ccc(-c3cnc(C4CC4)o3)cc2)c1,"inconclusive: 0.0178 µM [inhibitor, full curve, poor fit]",–
CCCCCCCOc1ccc(OC(=O)c2cccnc2)cc1,"inconclusive: 1 µM [inhibitor, partial curve]",–
COc1ccc(/C=N\NC(=O)c2ccccc2)cc1COc1ccc(F)cc1,"inconclusive: 11.2 µM [inhibitor, partial curve, poor fit]",–
CCOC(=O)c1c(NC(=O)CN2CCN(S(=O)(=O)c3cc(Cl)ccc3Cl)CC2)sc(C(=O)N(C)C)c1C,"inconclusive: 11.2 µM [inhibitor, single point]",–
CCOc1ccc2nc(SCC(=O)Nc3ccc(S(=O)(=O)N4CCCC4)cc3)c(C)cc2c1,"inconclusive: 12.6 µM [inhibitor, partial curve, poor fit]",–

# Two of the compounds above, bar-delimited:
SMILES | Potency | activity change, negative = inhibition
COc1ccc(C2(C)NC(=O)N(CC(=O)c3cc(C)n(C4CC4)c3C)C2=O)cc1 (centres undefined) | inconclusive: 5.01 µM [inhibitor, partial curve, poor fit] | –
Cc1ccc(-n2ncc3c(N4CCC5(CC4)OCCO5)ncnc32)c(C)c1 | – | inactive: 6.11%

# Continued:

SMILES,Potency,"activity change, negative = inhibition"
Cc1ccc(NC(NC(=O)Cc2ccccc2)C(Cl)(Cl)Cl)cc1 (centres undefined),–,inactive: -4.97%
O=[N+]([O-])c1cccc2c(N3CCOCC3)ccnc12,"inconclusive: 12.6 µM [inhibitor, single point]",–
O=C(Cn1cnc2c(OCc3ccccc3)ncnc21)NCc1ccccc1,"inconclusive: 11.2 µM [inhibitor, partial curve, poor fit]",–
Cc1cc(C)nc(Nc2nc(-c3ccccc3)cs2)n1,"inconclusive: 14.1 µM [inhibitor, partial curve, poor fit]",–
CCCCCCCCCCCCCC(=O)O,"inconclusive: 12.6 µM [inhibitor, single point]",–
Nc1nc2c(ccc3ccccc32)s1,–,inactive: 19.4%
C/C(=N\NC(=O)c1cc(-c2ccc(C)s2)[nH]n1)c1ccco1,–,inactive: -11.6%
CNC(=O)c1sc2nc(-c3ccc(OC)cc3)cn2c1C,"inconclusive: 5.01 µM [inhibitor, partial curve, poor fit]",–
COc1ccc(C(=O)Nc2nnc(SCC(=O)NC3CCCC3)s2)c(OC)c1,"inconclusive: 1.26 µM [inhibitor, partial curve, poor fit]",–
Cc1ccc(C2=NCCn3c2c2ccc([N+](=O)[O-])cc2[n+]3[O-])cc1,active: 0.708 µM,–
O=C(COc1ccc(F)cc1)N1c2ccccc2CCc2ccccc21,"inconclusive: 3.55 µM [inhibitor, partial curve, poor fit]",–
COc1cccc(C(=O)NC2CCN(CC(=O)Nc3cccc(C)c3C)CC2)c1,"inconclusive: 12.6 µM [inhibitor, single point]",–
Cc1cccnc1NC(=S)NCc1ccco1,"inconclusive: 1.78 µM [inhibitor, full curve, poor fit]",–
CCC1=Nc2cc(C(=O)NCC3CCCO3)ccc2Sc2ccc(Cl)cc21 (centres undefined),"inconclusive: 2.82 µM [inhibitor, full curve, poor fit]",–
Cn1cc(C(CO)Cc2ccccc2)c2ccccc21 (centres undefined),–,inactive: 10.1%
COc1ccc(OCC(=O)N/N=C/c2cccc3cccnc23)cc1,"inconclusive: 28.2 µM [inhibitor, single point]",–
CCc1ccc(CNC(=O)C2CCN(c3nnc(C)c4c(C)n(-c5ccc(C)cc5)nc34)CC2)cc1,"inconclusive: 7.94 µM [inhibitor, partial curve]",–
Cc1nnsc1S(=O)c1ccc(Br)cc1 (centres undefined),"inconclusive: 4.47 µM [inhibitor, partial curve, poor fit]",–
O=C1C(C=Nc2ccccc2O)=C(O)c2ccccc21,"inconclusive: 5.01 µM [inhibitor, partial curve, poor fit]",–
Cc1nn(C)c(C(=O)Sc2cccc(Cl)c2)c1[N+](=O)[O-],–,inactive: -0.578%
COc1ccc(OCCCn2cc(/C=C3/C(=N)N4C=C(C)SC4=NC3=O)c3ccccc32)cc1,–,inactive: 3.24%
CC[C@H](C)Cc1cn([C@@H](CCCN=C(NC(=O)OC(C)(C)C)NC(=O)OC(C)(C)C)C(=O)NCCCCCCCCCCC(=O)N2CCN(C(=O)OC(C)(C)C)CC2)nn1,"inconclusive: 12.6 µM [inhibitor, single point]",–
